# Several values for one entry are separate records, joined by “and”; a condition that tells them apart may be missing. Identical values can stand only once. The whole screen tested about 300,000 compounds, of which about 5,400 (1.8%) were called active. Inconclusive means that the source gave no clear call. Such entries were picked first, then a sample of the others. The call rests on the fitted dose curve; tested in HEK293 cells. Potencies of inconclusive entries are doubtful fits and often do not repeat.
# Assay: qHTS for inhibitors of binding or entry into cells for Marburg Virus
# Conditions: Marburg virus pseudotyped entry inhibition, cell reporter; activity change, negative = inhibition: at 37.8 µM (top of the series) unless noted
# On the % scale 0 is the no-effect control and ±100 the full control effect; potency means the concentration at half of the fitted maximal effect.
Compound,Potency,"activity change, negative = inhibition"
COC(=O)C1=C(C)NC(=S)NC1c1ccc(N(CCCl)CCCl)cc1Cl (stereo unspecified),"inconclusive: 31.6 µM [inhibitor, single point]",–
Cn1cnc([N+](=O)[O-])c1S(=O)(=O)Oc1ccccc1,"inconclusive: 2.82 µM [inhibitor, partial curve, poor fit]",–
NC(N)=N/N=C/c1ccc(N2CCOCC2)cc1,"inconclusive: 5.17 µM [inhibitor, full curve]",–
CC(C)CCNC(=O)C(c1ccncc1)N(CC1CCCO1)C(=O)Cn1nnc(-c2ccc(F)cc2)n1 (stereo unspecified),"inconclusive: 25.1 µM [activator, single point]",–
COc1ccc(C2C(C(=O)NCCCN3CCOCC3)c3ccccc3C(=O)N2c2ccc(OC)cc2)cc1 (stereo unspecified),"inconclusive: 35.5 µM [inhibitor, single point]",–
CCN(CC)S(=O)(=O)c1ccc(N(C)CCc2ccc(OC)c(OC)c2)nc1,"inconclusive: 35.5 µM [inhibitor, single point]",–
COc1ccc2c(c1)-c1nc(NC(=O)c3ccc(OC)c(Br)c3)sc1CC2,–,inactive: -32.8% [at 46.1 µM]
CCc1nnc(NC(=O)c2cc(S(=O)(=O)N3CCOCC3)ccc2N2CCCCC2)s1,"inconclusive: 0.562 µM [activator, full curve, poor fit]",–
Cc1ccc(-c2nc(=O)[nH]c3ccccc23)cc1,"inconclusive: 0.316 µM [inhibitor, partial curve, poor fit]",–
C/C(=N\NC(=O)Cc1ccc(O)cc1)c1cccnc1,"inconclusive: 35.5 µM [activator, single point]",–
O=C(CSc1nnc(-c2cccnc2)o1)Nc1cccc(Cl)c1,"inconclusive: 35.5 µM [activator, partial curve, poor fit]",–
CCOC(=O)Nc1ccc2c(c1)N(C(=O)OCCN(C)C)c1ccccc1CC2,"inconclusive: 29.1 µM [inhibitor, single point]",–
CCc1ccc(CCC(=O)N2CCN(S(=O)(=O)c3sc(C(=O)O)c(C)c3C(=O)O)CC2)cc1,–,inactive: 0.241%
CCC(C)C(=O)N1CCc2cc(-c3csc(N)n3)ccc21 (stereo unspecified),"inconclusive: 22.4 µM [inhibitor, single point]",–
Cc1c(C(=O)NC2CCCc3ccccc32)oc2ccc(S(=O)(=O)N3CCOCC3)cc12 (stereo unspecified),"inconclusive: 0.103 µM [inhibitor, full curve, poor fit]",–
Cc1ccc(/C=C2\SC(=S)N(CCCC(=O)NC3CCCC3)C2=O)cc1,"inconclusive: 6.31 µM [inhibitor, partial curve, poor fit]",–
Cc1cccc(-c2noc(CN(C3CCCCC3)S(=O)(=O)c3ccc(F)cc3)n2)c1,–,inactive: 11.6% [at 46.1 µM]
CCN(CC)CCCN1CC(O)=C(c2nc3ccccc3s2)C1=N,"inconclusive: 35.5 µM [inhibitor, single point]",–
Cc1ccc(CN2C(=O)c3ccccc3NC23CCN(Cc2ccccc2)CC3)cc1,"inconclusive: 12.6 µM [inhibitor, single point]",–
CCOC(=O)C1=C(O)/C(=C\c2cc(C)n(-c3ccccc3F)c2C)N=C1C,"inconclusive: 10 µM [activator, partial curve, poor fit]",–
C=CCc1cccc(C=Nc2cccn3cc(-c4ccccc4)nc23)c1O,–,inactive: 24.1% [at 46.1 µM]
O=C(CSc1nc2c(oc3ccccc32)c(=O)n1-c1ccccc1)Nc1ccccc1F,–,inactive: 6.97% [at 46.1 µM]

Compound,Potency,"activity change, negative = inhibition"
CC(C)c1ccc(NC(=O)CC2NCCNC2=O)cc1 (stereo unspecified),–,inactive: 19% [at 46.1 µM]
Cc1ccc(S(=O)(=O)N2CCOCC2)cc1NC(=O)CSc1nnc2cc(C)c3ccccc3n12,"inconclusive: 35.5 µM [inhibitor, single point]",–
CCN(CC(=O)Nc1ccc([N+](=O)[O-])cc1OC)c1ccccc1,"inconclusive: 29.1 µM [inhibitor, single point]",–
COc1ccc(C)cc1-n1nnnc1SCC(=O)NNC(=O)c1ccc([N+](=O)[O-])cc1,–,inactive: -1.35% [at 46.1 µM]
NS(=O)(=O)c1ccc(CCNC(=O)COC(=O)/C=C/c2cc(Br)ccc2F)cc1,"inconclusive: 17.8 µM [inhibitor, single point]",–
O=C(CCCn1c(=O)c2ccccc2n(Cc2cccc(Cl)c2)c1=O)NCCc1ccc(Cl)cc1,"inconclusive: 11.2 µM [inhibitor, partial curve, poor fit]",–
COc1ccccc1N1CCN(CC(=O)Nc2sccc2C#N)CC1,"inconclusive: 0.731 µM [inhibitor, single point]",–
c1ccc(Oc2cccc(CN3CCCCC3)c2)cc1,"inconclusive: 29.1 µM [inhibitor, single point]",–
CCn1c2ccccc2c2cc(NC(=O)Cc3ccc(S(=O)(=O)N4CCOCC4)s3)ccc21,"inconclusive: 12.6 µM [inhibitor, single point]",–
CCOc1ccc(C(C(=O)Nc2ccc(F)cc2)N(C(=O)Cn2nnc3ccccc32)C2CC2)cc1 (stereo unspecified),–,inactive: -16.8%
CC(C)N(Cc1nccn1C)C(=O)c1cc(COc2ccc3ncccc3c2)on1,–,inactive: -22.2% [at 46.1 µM]
CCN(CC)C(=O)CC(c1ccc(F)cc1)c1ccco1 (stereo unspecified),–,inactive: -28.4% [at 46.1 µM]
CC(=NCCCn1ccnc1)c1c(O)n(C)c(=O)n(C)c1=O,–,inactive: -6.35%
O=C(N1CCOCC1)N(Cc1ccco1)CC1CCCO1 (stereo unspecified),"inconclusive: 5.62 µM [activator, partial curve]",–
O=C(CCc1ccccc1)Nc1cc2c(cc1Cl)OCCO2,–,inactive: -14.7%
COc1cc(-c2nnc(SCC(=O)N3CCOCC3)o2)cc(OC)c1OC,"inconclusive: 3.55 µM [inhibitor, full curve, poor fit]",–
O=S(=O)(NCC(c1ccc2c(c1)OCO2)N1CCOCC1)c1ccccc1 (stereo unspecified),–,inactive: 12.7%
COc1ccc(C2Sc3ccccc3N(CCN(C)C)C(=O)[C@@H]2OC(C)=O)cc1 (stereo partly specified),"inconclusive: 16.4 µM [inhibitor, single point]",–
O=C1C(C=NCCN2CCOCC2)=C(O)c2ccccc21,"inconclusive: 22.4 µM [inhibitor, single point]",–
COc1ccc(OC)c(Nc2cc(-c3ccccc3)nc(N)n2)c1,"inconclusive: 7.08 µM [inhibitor, partial curve, poor fit]",–
COc1ccc2c(Sc3ccc(C)cc3)c(C(=O)NCc3ccc(F)cc3)[nH]c2c1,"inconclusive: 15.8 µM [inhibitor, partial curve, poor fit]",–
Cc1c(-c2ccc(F)cc2)[n+](=O)c2c(n1[O-])CCCCC2,–,inactive: -28.1%

Compound,Potency,"activity change, negative = inhibition"
Nc1c2c(nc3ccccc13)CCCC2O (stereo unspecified),"inconclusive: 10.3 µM [inhibitor, partial curve, poor fit] and inconclusive: 35.5 µM [inhibitor, single point]",–
CC1=C(C(=O)OCc2ccccc2)C(c2ccc(-c3ccccc3)cc2)NC(=O)N1CCCCCC(=O)O (stereo unspecified),–,inactive: 9.97%
COc1cc(C)c(CN2CCC(n3nccc3NC(=O)C3CC3)CC2)cc1C,"inconclusive: 11.2 µM [inhibitor, single point]",–
O=C(O)/C=C/C(=O)Nc1ccccc1C(=O)OCC(=O)c1ccc2c(c1)OCCO2,–,inactive: -6.14% [at 46.1 µM]
CN(C)C(=O)Nc1ccccc1CC[N+](=O)[O-],–,inactive: 20.1% [at 46.1 µM]
CCC(=O)Nc1ccccc1-c1nc2ccccc2n(CC(=O)c2ccc(Cl)cc2)c1=O,–,inactive: 2.39% [at 46.1 µM]
Cc1cccc(-c2nc3ccccc3n2Cc2ccccc2)c1,–,inactive: -28.4% [at 46.1 µM]
CC(C)OC(=O)C(C(=O)C(F)(F)F)c1cc(NS(=O)(=O)c2ccc3c4c(cccc24)C(=O)N3)ccc1O (stereo unspecified),"inconclusive: 8.91 µM [inhibitor, partial curve, poor fit]",–
Cc1ccccc1NC(=O)c1ccc2nccnc2c1,–,inactive: 6.57% [at 46.1 µM]
CCN(CC)S(=O)(=O)c1ccc(N2CCN(C)CC2)c(NC(=O)Nc2ccc(C)cc2)c1,"inconclusive: 11.2 µM [inhibitor, partial curve, poor fit]",–
COc1ccc(-c2nc(-c3ccccc3)nc(Cl)c2C#N)cc1,"inconclusive: 13 µM [inhibitor, partial curve, poor fit]",–
CCN(CC)c1ccc2cc(C=O)c(=O)oc2c1,–,inactive: -6.46%
CCn1cc(S(=O)(=O)Nc2cc(C(=O)OC)ccc2C)cn1,"inconclusive: 3.55 µM [inhibitor, partial curve, poor fit]",–
CCCCNc1nc(-c2ccccc2)c(C(=O)OCC)cc1C#N,"inconclusive: 17.8 µM [inhibitor, single point]",–
COc1ccc(S(=O)(=O)Nc2cccc(S(=O)(=O)NC3=NCCC3)c2)cc1[N+](=O)[O-],"inconclusive: 12.6 µM [activator, partial curve, poor fit]",–
Cc1cc(C)nc(N=Nc2c(O)n(Cc3ccc(Cl)cc3)c3ccccc23)n1,"inconclusive: 8.91 µM [inhibitor, partial curve, poor fit]",–
C=CCn1c(=O)c2ccc(C(=O)NCc3ccccc3)cc2n(Cc2ccccc2Cl)c1=O,"inconclusive: 0.316 µM [inhibitor, partial curve, poor fit]",–
COc1ccc(/C=N/n2c(SC)nnc(C(C)(C)C)c2=O)cc1,–,inactive: -3.08%
CCc1nnc(NC(=O)c2ccc(S(=O)(=O)N(CC(C)C)CC(C)C)cc2)o1,"inconclusive: 14.1 µM [inhibitor, single point]",–
Cc1ccc(/C=N/NC(=O)CNC(=O)Cc2ccccc2)o1,"inconclusive: 10 µM [activator, partial curve, poor fit]",–
Cc1cc(N)c2ccccc2[n+]1CCCCCCCCCC[n+]1c(C)cc(N)c2ccccc21,active: 10 µM,–
O=C(COC(=O)c1c(F)cccc1Cl)NC1CCCC1,"inconclusive: 10 µM [activator, partial curve, poor fit]",–

# — PubChem BioAssay AID540276 (National Center for Advancing Translational Sciences (NCATS), 2011)
